In this data set the test system is male and female mice. The following applies: acute, equi-antinociceptive doses.

With `CN1CC[C@]23c4c5ccc(O)c4O[C@H]2[C@@H](O)C=C[C@H]3[C@H]1C5.O=S(=O)(O)O` [Morphine, Morphine sulfate, reference compound], the “distance traveled (AUC)” value is reported as “increased the AUCs of distance traveled”.

The values above are taken from patent US20220056075A1, “METHOD FOR TREATING OPIOID USE DISORDER” (THE ADMINISTRATORS OF THE TULANE EDUCATIONAL FUND, priority 2019, published 2022).
